In patent publication US20190160180A1 (FUSION PHARMACEUTICALS, published 2019):
Positions count from the first letter of the chain named. Results are given in words; binding and its absence hold for the method and conditions named. Some binding calls cover weakened binding; strength is not graded here.

Legend:
[1] = biological target: T1, human Endosialin expressed by Sjsa-1 cells (human) (UniProt Q9HCU0); assay: flow cytometry on Sjsa-1 cells
T1 sequence: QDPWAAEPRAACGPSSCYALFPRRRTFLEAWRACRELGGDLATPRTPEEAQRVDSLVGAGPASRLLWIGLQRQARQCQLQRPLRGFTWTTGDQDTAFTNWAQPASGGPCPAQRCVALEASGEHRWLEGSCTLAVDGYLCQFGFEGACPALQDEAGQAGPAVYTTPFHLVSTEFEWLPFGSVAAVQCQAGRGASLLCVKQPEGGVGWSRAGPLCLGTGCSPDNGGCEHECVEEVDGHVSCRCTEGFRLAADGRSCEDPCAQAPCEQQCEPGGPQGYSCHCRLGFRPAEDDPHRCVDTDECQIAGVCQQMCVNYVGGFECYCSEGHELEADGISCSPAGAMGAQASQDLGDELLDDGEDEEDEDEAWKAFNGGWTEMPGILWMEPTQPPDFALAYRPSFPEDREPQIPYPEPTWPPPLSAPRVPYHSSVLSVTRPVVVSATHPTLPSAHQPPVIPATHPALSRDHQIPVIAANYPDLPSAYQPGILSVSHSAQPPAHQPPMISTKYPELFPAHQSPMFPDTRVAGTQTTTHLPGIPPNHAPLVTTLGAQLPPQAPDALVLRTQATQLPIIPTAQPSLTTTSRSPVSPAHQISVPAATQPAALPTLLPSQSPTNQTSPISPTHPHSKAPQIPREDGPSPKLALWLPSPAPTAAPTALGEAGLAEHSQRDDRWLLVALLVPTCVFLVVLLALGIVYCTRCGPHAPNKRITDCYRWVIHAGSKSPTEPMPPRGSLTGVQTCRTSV

[2] = biological target: T2, human recombinant Endosialin (human, UniProt Q9HCU0 18-687, limits assumed); assay: ELISA, plate coated with recombinant Endosialin
T2 construct: Coated on ELISA plates at 1 ug/ml; also called TEM-1; TEM1
T2 sequence: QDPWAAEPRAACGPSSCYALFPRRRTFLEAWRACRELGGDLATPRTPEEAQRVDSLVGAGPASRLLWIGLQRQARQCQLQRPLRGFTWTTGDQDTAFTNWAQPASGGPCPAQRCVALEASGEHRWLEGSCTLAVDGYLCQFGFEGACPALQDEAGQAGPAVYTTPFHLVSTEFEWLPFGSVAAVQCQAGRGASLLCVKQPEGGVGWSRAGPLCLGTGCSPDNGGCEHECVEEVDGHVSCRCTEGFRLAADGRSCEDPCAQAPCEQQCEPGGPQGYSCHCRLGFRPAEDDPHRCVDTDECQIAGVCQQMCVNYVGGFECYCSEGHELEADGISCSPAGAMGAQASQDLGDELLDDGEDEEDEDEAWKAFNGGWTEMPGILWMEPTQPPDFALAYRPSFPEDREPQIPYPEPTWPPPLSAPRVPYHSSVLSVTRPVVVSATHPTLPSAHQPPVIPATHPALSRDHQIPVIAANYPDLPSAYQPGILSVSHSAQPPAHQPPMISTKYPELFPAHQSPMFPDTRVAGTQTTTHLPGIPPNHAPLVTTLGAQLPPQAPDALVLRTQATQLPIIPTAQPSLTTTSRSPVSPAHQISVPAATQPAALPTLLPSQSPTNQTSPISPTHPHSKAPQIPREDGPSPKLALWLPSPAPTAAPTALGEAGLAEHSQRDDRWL
Protocol: Materials and Methods: (FIG. 2). (A) Ninety-six well plates (NUNC Maxisorp modules) were pre-coated with human recombinant Endosialin (1 μg/ml) overnight at 4° C. After blocking with 1% BSA in PBS+0.1% Tween-20 for 1 hour at 4° C., mMP-E-8.3, cMP-E-8.3, hMP-E-8.3 and a commercial antibody against Endosialin at the indicated concentration were added and incubated for 2 hours at room temperature. After several washes with PBS+0.1% Tween-20, a goat anti-mouse or anti-human IgG-HRP solution was added to each well and incubated for 1 hour at 37° C. After washes, stabilized chromogen was added to each well for at least 10 minutes in the dark, then the reaction was stopped with the addition of 1 N H₂SO4 and the absorbance was read at 450 nm with an ELISA reader. (B) Sjsa-1 human osteosarcoma cell line were stained with 1 μg/ml of mMP-E-8.3 antibody, or cMP-E-8.3 and hMP-E-8.3 at 100 ng/ml (blue line) and 1 ug/ml (green line) or with 1 μg/ml of a commercial antibody against Endosialin on ice for 30 minutes after incubation with a Goat anti-mouse/anti-human Alexa-488 conjugated antibodies for 1 hour on ice, cells were analyzed by flow cytometer (FACS). (C) Sjsa-1 human osteosarcoma cells were grown on glass coverslips for 24 hours. […]

[3] = biological target: T1, human Endosialin expressed by Sjsa-1 cells (human); assay: flow cytometry and confocal microscopy on Sjsa-1 Endosialin positive cells, 10 ug/ml
[4] = biological target: T1, human Endosialin expressed by Sjsa-1 cells (human); assay: flow cytometry and confocal microscopy on Sjsa-1 cells
[5] = biological target: T1, human Endosialin expressed by Sjsa-1 cells (human); assay: confocal microscopy on fixed Sjsa-1 cells

Measured: binding

B1: hMP-E-8.3 (antibody, V domains shown)
VH: QVQLQESGPGLVKPSETLSLTCTVSGFSLTGYGVNWIRQPPGKGLEWIGMIWVDGSTDYNSALKSRVTISVDTSKNQFSLKLSSVTAADTAVYYCARGGYGAMDYWGQGTLVTVSS
VL: DIQMTQSPSTLSASVGDRVTITCHASQNINVWLTWYQQKPGKAPKLLIYKASNLHTGVPSRFSGSGSGTEFTLTISSLQPDDFATYYCQQGQSYPWTFGGGTKLEIK
binds: [1] | [2]

B2: mMP-E-8.3 (antibody, V domains shown)
VH: QVQLQESGPGLVAPSQSLSITCTVSGFSLTGYGVNWVRQPPEKGLEWLGMIWVDGSTDYNSALKSRLNISKDKSKSQVFLKMNSLQTDDTARYYCARGGYGAMDYWGQGTSVTVSS
VL: B1 VL with T5N, T10S, V15L, R18T, V19I, K42N, A43I, E70G, D81E, F83I
not listed: [1]
binds: all other assays above
